Data: PMC12847986
No constants are given. Whether binding was seen depends on the method and setting. A result given as binding can be weak or reduced; the word gives no strength.

Molecular target: T1, C2b (large fragment of C2, VWA-SP) with S679A (human) (UniProt P06681)
T1 sequence: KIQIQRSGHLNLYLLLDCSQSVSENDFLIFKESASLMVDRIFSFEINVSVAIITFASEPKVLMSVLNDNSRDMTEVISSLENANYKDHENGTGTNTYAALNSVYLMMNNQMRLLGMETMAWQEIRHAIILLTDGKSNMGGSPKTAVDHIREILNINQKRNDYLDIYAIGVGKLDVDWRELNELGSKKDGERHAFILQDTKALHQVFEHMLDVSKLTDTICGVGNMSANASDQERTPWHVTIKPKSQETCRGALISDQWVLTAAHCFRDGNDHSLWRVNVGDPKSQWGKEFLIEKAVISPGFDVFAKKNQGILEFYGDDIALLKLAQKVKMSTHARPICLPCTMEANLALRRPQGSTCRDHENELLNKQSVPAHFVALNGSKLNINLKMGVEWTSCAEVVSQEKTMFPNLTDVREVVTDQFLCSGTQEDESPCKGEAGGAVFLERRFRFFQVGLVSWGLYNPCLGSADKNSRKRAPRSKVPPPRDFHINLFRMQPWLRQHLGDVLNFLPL
Experiment: cryo-EM structure; SEC-purified C4b-C3 duo-nanobody complex, C2(S679A) and activated C1s(DDDDK) mixed 25:5:1 by volume, 30 sec at room temperature; 20 mM HEPES pH 7.4, 150 mM NaCl, 2 mM MgCl2; C4b2b (4.2 A) and C4b2b-C3 (3.5 A) maps from the same data set; both purified

binding: binds
Substance: complement C3 (human)
